No constants are given. Whether binding was seen depends on the method and setting. Binding seen in cells or lysates may run through a third protein. Tags and fused reporters may be left off the sequences shown.
Target: T1, c-myc-tagged cytoplasmic loop of NCKX2, phosphomimetic mutant Y365E (rat) (UniProt O54701)
T1 sequence: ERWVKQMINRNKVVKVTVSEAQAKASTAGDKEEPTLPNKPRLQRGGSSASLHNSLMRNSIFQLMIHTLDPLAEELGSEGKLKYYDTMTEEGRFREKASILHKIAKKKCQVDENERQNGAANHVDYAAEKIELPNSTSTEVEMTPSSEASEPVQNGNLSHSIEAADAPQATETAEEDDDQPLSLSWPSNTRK
Test: co-IP; HEK293 cells co-transfected with HA-AP2M1 and myc-NCKX2-loop variants; lysate (50 mM Tris-Cl pH 7.4, 150 mM NaCl, 1 mM EDTA, 0.5% Triton X-100) incubated with anti-c-myc agarose overnight at 4°C; eluted with c-myc peptide; anti-HA blot, densitometry, n = 5

B1: HA-tagged AP2M1 (μ subunit of adaptor protein complex 2) (natural protein, UniProt P84092 1-435, looked up)
chain: MIGGLFIYNHKGEVLISRVYRDDIGRNAVDAFRVNVIHARQQVRSPVTNIARTSFFHVKRSNIWLAAVTKQNVNAAMVFEFLYKMCDVMAAYFGKISEENIKNNFVLIYELLDEILDFGYPQNSETGALKTFITQQGIKSQHQTKEEQSQITSQVTGQIGWRREGIKYRRNELFLDVLESVNLLMSPQGQVLSAHVSGRVVMKSYLSGMPECKFGMNDKIVIEKQGKGTADETSKSGKQSIAIDDCTFHQCVRLSKFDSERSISFIPPDGEFELMRYRTTKDIILPFRVIPLVREVGRTKLEVKVVIKSNFKPSLLAQKIEVRIPTPLNTSGVQVICMKGKAKYKASENAIVWKIKRMAGMKESQISAEIELLPTNDKKKWARPPISMNFEVPFAPSGLKVRYLKVFEPKLNYSDHDVIKWVRYIGRSGIYETRC
notes: AP2M1, μ subunit of adaptor protein complex 2 (NM_053837.1; P84092), cloned into pcDNA3; gift from Dr. Ryan (Kim and Ryan, 2009); also called HA-AP2M1; μ subunit of AP-2; source: HEK293, transfected (calcium phosphate), in lysate
For B1, the binding was “no binding”.

Source: paper PMC3576620, “Endocytosis of somatodendritic NCKX2 is regulated by Src family kinase-dependent tyrosine phosphorylation” (Frontiers in Cellular Neuroscience, 2013)
